This is one part of the list. The main result of the screen is listed elsewhere. These columns were measured beside it and carry no call. The list favours compounds with an active or inconclusive main result. Potencies come from curve fits of mixed quality, noted in brackets.
Assay: IkB Signaling
Conditions: ABC-DLBCL IkBa-CBG/CBR dual luciferase ratio (green luciferase fused to IkBa over red control in OCI-Ly3 lymphoma cells), 4 h
Method in brief: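 Luminescence ratio of IκBα-fused green versus native red beetle luciferase in OCI-Ly3 cells, 4 h post-doxycycline with compound; red signal alone, scaled from basal (0%) to zero light (-100%), flagged nonspecific or cytotoxic effects.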

[1] = measured here: control luc red channel unless noted

COc1ccc(CCNC(=O)c2c(Nc3ccccc3C)sc(C(=O)c3ccccc3)c2N)cc1OC
AC50 [1]: 39.8 µM [falling, single point]

CCCCC(CC)CNC(=O)c1ccc(Cn2c(=O)[nH]c3cc(OC)c(OC)cc3c2=O)cc1 (stereo not given)
AC50 [1]: 15.8 µM [falling, partial curve]

COc1ccccc1-c1cc(C(=O)NC(C)C)no1
AC50 [1]: 0.398 µM [falling, full curve]

COc1ccc(-c2nn(C)c3sc(C(=O)Nc4cc(OC)c(OC)c(OC)c4)cc23)cc1OC
AC50 [1]: 3.16 µM [falling, full curve]

CCCN(C(=O)c1c(C)oc2ncn(CC(C)C)c(=O)c12)c1ccccc1C
AC50 [1]: 7.94 µM [falling, partial curve]

COc1cccc(CN2CCCN(Cc3ccc(F)cc3)S2(=O)=O)c1
AC50 [1]: 15.8 µM [falling, partial curve]

CCCOc1ccc(C(=O)Nc2cc(-c3nc4ccccc4[nH]3)ccc2C)cc1
AC50 [1]: 6.31 µM [rising, single point]

COc1ccc(C)cc1NC(=O)C1CCN(S(=O)(=O)Cc2ccccc2)CC1
AC50 [1]: 20 µM [falling, single point]

Cc1ccccc1OCc1nnc(SCc2cc(=O)c3cc(F)ccc3[nH]2)n1C
AC50 [1]: 3.16 µM [falling, partial curve]

COc1ccc(-c2ccc(CCC(=O)O)n2-c2ccccc2C(F)(F)F)cc1
AC50 [1]: 12.6 µM [falling, single point]

COc1ccc(-c2nc3ccccc3o2)cc1NC(=O)c1cc([N+](=O)[O-])ccc1N1CCOCC1
AC50 [1]: 3.98 µM [falling, full curve]

CCC1CN(CC(=O)NCc2cccc(Br)c2)c2ccccc2S1 (stereo not given)
AC50 [1]: 2.51 µM [falling, single point]

COC(=O)Cc1c(C)nc2nc(NCc3ccc(Br)cc3)[nH]n2c1=O
AC50 [1]: 12.6 µM [falling, partial curve]

O=C(CCCCCn1c(=O)[nH]c2ccccc2c1=O)NCCCN1CCN(c2ccccc2F)CC1
AC50 [1]: 20 µM [falling, partial curve]

CCOC(=O)CN(Cc1ccccc1)C(C(=O)NC1CCCCC1)c1ccccc1 (stereo not given)
AC50 [1]: 12.6 µM [falling, partial curve]

CCOc1ccc(-n2cc(-c3ccccc3)c3c(NCc4ccccc4)ncnc32)cc1
AC50 [1]: 0.0631 µM [rising, full curve]

O=C1C(c2ccncc2)=C(O)c2ccccc21
AC50 [1]: 20 µM [falling, single point]

COc1ccc(CNC(=O)C2CCN(S(=O)(=O)N3CCC(C)CC3)CC2)c(OC)c1
AC50 [1]: 31.6 µM [falling, single point]

COc1cccc(NC(=O)C2CC(=O)N(c3ccc(Br)cc3)C2)c1 (stereo not given)
AC50 [1]: 12.6 µM [falling, partial curve]

O=C(NC1=NCCS1)c1cc2ccccc2o1
AC50 [1]: 12.6 µM [falling, partial curve]

COc1ccc(OC)c(CCNC(=O)c2ccc3[nH]c(C)c(C)c3c2)c1
AC50 [1]: 39.8 µM [falling, single point]

COc1ccc(CNC(=O)c2cc3c(=O)n4ccccc4nc3n(Cc3ccco3)c2=N)cc1
AC50 [1]: 7.94 µM [falling, full curve]

COc1cccc(CNC(=O)c2cc3c(=O)n(C)c4ccccc4c3n2C)c1
AC50 [1]: 7.94 µM [falling, single point]

Cc1ccc(C)c(N2CCN(C(=O)c3cccn3-c3nnc(N4CCCCC4)s3)CC2)c1
AC50 [1]: 39.8 µM [falling, partial curve]

COc1ccccc1CCNC(=O)CCc1c(C)c2cc3c(C)coc3cc2oc1=O
AC50 [1]: 39.8 µM [falling, single point]

CCN1CCN(CCCNC(=O)c2cc3c(s2)-c2c(C)cccc2OC3)CC1
AC50 [1]: 31.6 µM [falling, single point]

Cc1ccc(Nc2cc(C(=O)NC3CCCC3)c3ccccc3n2)c(C)c1
AC50 [1]: 15.8 µM [falling, single point]

CN(Cc1ccccc1)C(=O)Cn1ncc2c3ccccc3n(Cc3cccc(Cl)c3)c2c1=O
AC50 [1]: 10 µM [falling, partial curve]

O=S(=O)(NCCOCC(F)(F)C(F)F)c1ccc2oc3ccccc3c2c1
AC50 [1]: 10 µM [falling, partial curve]

COc1cc(C2c3c(oc4ccccc4c3=O)C(=O)N2Cc2ccccc2Cl)ccc1O (stereo not given)
AC50 [1]: 39.8 µM [falling, single point]

Cc1ccc2nc(-c3ccccc3)cc(C(=O)O)c2c1
AC50 [1]: 20 µM [falling, partial curve]

Cc1ccc2nc(SCc3nc(-c4ccccc4C)no3)[nH]c2c1
AC50 [1]: 31.6 µM [falling, single point]

Cc1ccc(C(=O)CCNc2ccccc2)o1
AC50 [1]: 25.1 µM [falling, single point]

Cc1ccccc1Cn1c(Oc2ccccc2F)nc2c1c(=O)n(C)c(=O)n2C
AC50 [1]: 15.8 µM [falling, partial curve]

CS(=O)(=O)N1CCc2cc(S(=O)(=O)Nc3ccc4oc5c(c4c3)CCCC5)ccc21
AC50 [1]: 15.8 µM [falling, partial curve]

Cc1ccc(N2CCN(C(=O)C3CCC(CNS(=O)(=O)c4ccc(Br)s4)CC3)CC2C)cc1 (stereo not given)
AC50 [1]: 6.31 µM [falling, partial curve]

COc1ccccc1NC(=O)c1ccccc1NC(=O)c1ccccc1
AC50 [1]: 0.126 µM [falling, full curve, poor fit]

Cc1ccc(CN(C(=O)COc2ccc(C(C)(C)C)cc2)C2CCS(=O)(=O)C2)o1 (stereo not given)
AC50 [1]: 25.1 µM [falling, single point]

COc1ccc(-c2c3c(nc4sc(C(=O)Nc5ccc(Cl)cc5)c(N)c24)CC(C)(C)CC3=O)cc1
AC50 [1]: 15.8 µM [falling, partial curve]

CCC(=NC(C)c1ccccc1)c1c(O)n(C)c(=O)n(C)c1=O (stereo not given)
AC50 [1]: 12.6 µM [falling, partial curve]

CCn1ccc2cc(S(=O)(=O)N3CCC(C(=O)NCCc4ccc(SC)cc4)CC3)ccc21
AC50 [1]: 5.01 µM [falling, full curve]

CCc1cccc(C)c1NC(=O)CN1C(=O)c2c(c3ccccc3n2C)C1c1ccc(OC)cc1 (stereo not given)
AC50 [1]: 25.1 µM [falling, partial curve]

O=C1C(Cl)=C(N2CCOCC2)C(=O)N1c1cccc(Cl)c1
AC50 [1]: 10 µM [falling, partial curve]

COc1ccc(-c2nc(CCNC(=O)c3cccs3)cs2)cc1OC
AC50 [1]: 20 µM [falling, single point]

CCOc1ccc(C(=O)Nc2ccc(-c3nc4cc(C(C)C)ccc4o3)cc2)cc1Cl
AC50 [1]: 2 µM [falling, full curve]

CCc1cccc(NC(=O)c2nc(-c3ccncc3)no2)c1
AC50 [1]: 1 µM [falling, partial curve]

CCOC(=O)c1cccc(NC(=O)CN(c2ccc(OC)cc2)S(=O)(=O)c2c(C)noc2C)c1
AC50 [1]: 7.94 µM [falling, partial curve]

CCOC(=O)Cc1nnc2c(Nc3ccccc3F)nc3nonc3n12
AC50 (measured here: IkB-luc green channel): 39.8 µM [falling, single point]
AC50 (measured here: control luc red channel): 25.1 µM [falling, partial curve]

Fc1cccc(NCc2cccn2-c2nnc(N3CCOCC3)s2)c1
AC50 [1]: 1.58 µM [falling, partial curve]

Cc1ccc(NCc2cccn2-c2nnc(N3CCC(C(=O)NCCc4ccccc4)CC3)s2)cc1
AC50 [1]: 0.158 µM [falling, full curve]

CCNC(=O)c1cnc2sc(N3CCC(C)CC3)nn2c1=O
AC50 [1]: 10 µM [rising, full curve]

Cc1ccc2c(c1)N(C(=O)N1CCC(C(=O)NCCC3=CCCCC3)CC1)CC(C)O2 (stereo not given)
AC50 [1]: 31.6 µM [falling, single point]

Cc1c(C(=O)N2CCCC2)oc2c1-c1nn(CC(=O)NCc3cccc(F)c3)cc1CC2
AC50 [1]: 25.1 µM [falling, single point]

O=C(Nc1cccc(Cl)c1)c1ccc2nc(Cc3ccccc3)oc2c1
AC50 [1]: 31.6 µM [falling, partial curve]

Cc1ncc(COC(=O)C(C)C)c2cc(C(=O)Nc3ccccc3C(F)(F)F)c(=O)oc12
AC50 [1]: 39.8 µM [falling, single point]

CCCCn1c(CNC(=O)C23CC4CC(CC(C4)C2)C3)nnc1SCC(=O)Nc1ccccc1
AC50 [1]: 31.6 µM [falling, single point]

CCOc1ccc(CCNc2ncnc3onc(-c4ccc(F)cc4)c23)cc1OCC
AC50 [1]: 39.8 µM [falling, single point]

Cc1cccc(N2C(=O)CS(=O)(=O)C23C(=O)N(C)c2ccccc23)c1 (stereo not given)
AC50 [1]: 39.8 µM [falling, single point]

Nc1c(NC2CCCCC2)c2ccccc2oc1=O
AC50 [1]: 12.6 µM [falling, partial curve]

CC1=C(C(N)=O)C(c2cccc(F)c2)n2nc(SCc3ccccc3)nc2N1 (stereo not given)
AC50 [1]: 5.01 µM [rising, single point]

NC(=O)SCC(=O)Nc1cccc(Cl)c1
AC50 [1]: 12.6 µM [falling, partial curve]

CCc1ccc(C(=O)c2cnc3ccc(C)cc3c2S(=O)(=O)c2ccc(OC)cc2)cc1
AC50 [1]: 0.251 µM [falling, full curve]

CCCCc1ccc(C(=O)Nc2ccc3nc(N(CC)CC)cc(C)c3c2)cc1
AC50 [1]: 0.251 µM [falling, full curve]

O=C(CCCn1c(=O)c2sccc2n(Cc2ccc(F)cc2Cl)c1=O)NCc1ccc2c(c1)OCO2
AC50 [1]: 0.00501 µM [falling, full curve, poor fit]

— PubChem BioAssay AID445 (National Center for Advancing Translational Sciences (NCATS), 2006)
